Source: PubChem BioAssay AID1259425 (University of Nebraska Medical Center, 2018)
This is one part, drawn at random, of about 14,000 deposited reagents. Not all columns of the deposit are shown. Not stated in the record: the time to read-out.

- Screen: 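Seek colon cancer weak points whose silencing resembles KSR1 loss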 (primary screen)
- Cell system: HCT116 human colon cancer cells
- Reagent: siRNA pool against human genes, 50 nM siRNA
- Read-out: 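mRNA of six signature genes measured together by branched-DNA assay after 50 nM siRNA pool, blank removed, divided by geometric mean of two housekeeping genes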
- Reading the numbers: BNIP3L mRNA: higher = more BNIP3L transcript after knockdown; NDRG1 mRNA: higher = more NDRG1 transcript after knockdown; BNIP3 mRNA: higher = more BNIP3 transcript after knockdown; ALDOC mRNA: higher = more ALDOC transcript after knockdown

gene knocked down,"BNIP3L mRNA, set 1","NDRG1 mRNA, set 1","BNIP3 mRNA, set 1","ALDOC mRNA, set 1"
MRPL28 (GeneID 10573),0.0594,0.185,0.303,0.0189
FEZ2 (GeneID 9637),0.0767,0.122,0.219,0.0131
PTPRCAP (GeneID 5790),0.0951,0.118,0.314,0.0248
PAGE4 (GeneID 9506),0.147,0.373,0.554,0.0165
WT1 (GeneID 7490),0.0802,0.151,0.305,0.0135
NOL4 (GeneID 8715),0.0592,0.175,0.354,0.0125
YBX2 (GeneID 51087),0.139,0.294,0.327,0.0195
TCERG1 (GeneID 10915),0.131,0.0873,0.282,0.0252
ST6GALNAC1 (GeneID 55808),0.0993,0.304,0.368,0.0194
ANP32A (GeneID 8125),0.0871,0.221,0.374,0.0372
KCNJ15 (GeneID 3772),0.0625,0.0703,0.271,0.0165
PREX1 (GeneID 57580),0.121,0.379,0.358,0.019
GNB2 (GeneID 2783),0.191,1.05,0.32,0.0396
C6orf62 (GeneID 81688),0.0886,0.481,0.285,0.0434
STAMBP (GeneID 10617),0.131,0.271,0.216,0.0432
NCAPH2 (GeneID 29781),0.112,0.356,0.314,0.0429
ARNT2 (GeneID 9915),0.11,0.116,0.227,0.0494
DDX25 (GeneID 29118),0.15,0.616,0.418,0.0456
SAMHD1 (GeneID 25939),0.138,0.2,0.408,0.0128
ASB13 (GeneID 79754),0.158,0.278,0.418,0.0218
ZSCAN31 (GeneID 64288),0.0815,0.219,0.325,0.0181
ELOA (GeneID 6924),0.101,0.12,0.303,0.0239
CDH22 (GeneID 64405),0.12,0.232,0.224,0.0341
KDM5A (GeneID 5927),0.0383,0.177,0.291,0.00742
STX17 (GeneID 55014),0.0876,0.226,0.272,0.00886
CSH1 (GeneID 1442),0.089,0.093,0.238,0.0237
CYP2C19 (GeneID 1557),0.114,0.282,0.276,0.0498
USP46 (GeneID 64854),0.0988,0.0931,0.146,0.0203
TIMM8B (GeneID 26521),0.124,0.692,0.348,0.0194
NCAPG2 (GeneID 54892),0.111,0.109,0.277,0.0324
TLX1 (GeneID 3195),0.13,0.0946,0.327,0.0122
ZYX (GeneID 7791),0.107,0.237,0.293,0.021
SDCCAG8 (GeneID 10806),0.11,0.099,0.25,0.0186
NUBP2 (GeneID 10101),0.126,0.202,0.287,0.0118

Part of the list above, reduced to “ALDOC mRNA, set 1”.
ELOA (GeneID 6924) = 0.0239
CDH22 (GeneID 64405) = 0.0341
